PubChem BioAssay AID504786 | Drosophila RNAi Screening Center – 2011

- Assay: 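Positive regulators of HIF-driven reporter output in Drosophila cells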 (primary screen)
- System: Drosophila S2 cells with a stable HIF luciferase reporter
- Reagent: long dsRNA against Drosophila genes, about 0.2 µg dsRNA per well of a 384-well plate
- Time to read-out: three days of knock-down, then 20 h of DFO before reading
- Challenge: desferrioxamine (DFO) at 100 µM, an iron chelator that mimics hypoxia, for 20 h
- Read-out: 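Firefly luciferase driven by the mouse ldh-a hypoxia-response element, measured after 20 h of 100 µM DFO; z-scores per plate, higher means more signal lost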
- Scale: z-score: higher = stronger loss of HIF reporter signal
The screen tested about 21,000 reagents; shown is a random part of those with a known target gene and a result. 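Primary screen; positive scores mean lost reporter signal, so the sign may be inverted from the usual convention.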 A plus sign joins genes that one reagent is predicted to hit. No sequences are given here.

target gene | dsRNA | z-score, replicate 1 | z-score, replicate 2 | z-score, replicate 3 | z-score, replicate 4
shd | DRSC11129 | 0.2 | 0.1 | – | –
Tom | DRSC11306 | -0.1 | -0.2 | – | –
amx | DRSC18736 | 0.4 | 1 | – | –
CG30281 | DRSC04528 | 0 | 0 | – | –
CG34171 | DRSC01637 | 0 | 0.6 | – | –
Tmf | DRSC18368 | -0.3 | -0.4 | – | –
Bin1 | DRSC16843 | -0.3 | -0.2 | – | –
CG14662 | DRSC12248 | 0 | -0.2 | – | –
CG32814 | DRSC17670 | 0 | -0.2 | – | –
Dsk | DRSC12347 | -0.2 | -0.4 | – | –
eRF1 | DRSC11779 | 1.2 | 1.4 | – | –
Nlg4 | DRSC15108 | 0.4 | -0.1 | – | –
Nlg4 | DRSC15109 | 0.4 | -0.1 | – | –
Nlg4 | DRSC15700 | -0.1 | -0.1 | – | –
Nlg4 | DRSC15701 | 4 | -1.1 | – | –
MED23 + CG3700 | DRSC04406 | 0.2 | 0.4 | – | –
MED23 + CG3700 | DRSC04407 | -0.2 | -0.3 | – | –
Muc30E | DRSC01101 | 0.1 | 0.1 | -0.4 | -0.3
grim | DRSC11352 | 0.8 | -0.8 | – | –
Rrp46 | DRSC15537 | -0.2 | -0.4 | – | –
Galt | DRSC03161 | -0.2 | -0.2 | – | –
CG16957 | DRSC02545 | -0.3 | -0.6 | – | –
CG12016 + Dpm2 | DRSC08224 | -0.1 | 0.5 | – | –
Hipk | DRSC07885 | 0.3 | 0.4 | – | –
Hipk | DRSC08507 | 0.3 | 0.4 | – | –
CG3902 | DRSC10387 | -0.2 | 0.5 | – | –
REPTOR-BP | DRSC02683 | -0.3 | -0.4 | – | –
CG2021 | DRSC08546 | -0.1 | 0.4 | – | –
CG15414 | DRSC00429 | -0.4 | -0.4 | – | –
sog | DRSC20379 | -0.5 | -0.6 | – | –
CG31624 | DRSC02617 | 0.1 | -0.3 | – | –
Mgat3 | DRSC01305 | 0 | 0 | – | –
CG32815 | DRSC18177 | -0.3 | -0.3 | – | –
HemK1 | DRSC03253 | -0.2 | 0.2 | – | –
bwa | DRSC01749 | -0.2 | -0.1 | – | –
bwa | DRSC02310 | -0.2 | -0.1 | – | –

10 entries from above, set out differently:
target gene,dsRNA,"z-score, replicate 1","z-score, replicate 2","z-score, replicate 3","z-score, replicate 4"
Nlg4,DRSC15109,0.4,-0.1,,
Nlg4,DRSC15700,-0.1,-0.1,,
Nlg4,DRSC15701,4,-1.1,,
MED23 + CG3700,DRSC04406,0.2,0.4,,
MED23 + CG3700,DRSC04407,-0.2,-0.3,,
Muc30E,DRSC01101,0.1,0.1,-0.4,-0.3
grim,DRSC11352,0.8,-0.8,,
Rrp46,DRSC15537,-0.2,-0.4,,
Galt,DRSC03161,-0.2,-0.2,,
CG16957,DRSC02545,-0.3,-0.6,,

The results go on.
target gene | dsRNA | z-score, replicate 1 | z-score, replicate 2 | z-score, replicate 3 | z-score, replicate 4
GlcAT-S | DRSC02731 | -0.2 | -0.4 | – | –
CG9932 | DRSC03275 | -0.3 | -0.2 | – | –
blanks | DRSC09757 | -0.5 | -0.6 | – | –
Trim9 | DRSC02242 | -0.2 | 0.3 | – | –
AstC-R1 | DRSC10799 | -0.1 | -0.8 | – | –
CG17237 | DRSC00491 | 0 | -0.2 | – | –
nesd | DRSC02099 | -0.1 | 0.1 | – | –
CG11127 | DRSC06043 | 0 | 0.4 | – | –
CG5255 | DRSC15754 | -0.4 | -0.1 | – | –
Noa36 | DRSC16761 | -0.3 | 0 | – | –
CG13557 | DRSC04195 | -0.3 | -0.5 | – | –
CG4375 | DRSC00653 | -0.3 | -0.2 | – | –
Ser8 | DRSC06891 | 0 | -0.2 | – | –
Dhc1 | DRSC16503 | -0.4 | -0.8 | – | –
CG8568 | DRSC20113 | -0.2 | -0.7 | – | –
Or98b | DRSC16775 | -0.5 | -0.3 | – | –
Smyd4-4 | DRSC05956 | 0.1 | 0.1 | – | –
GEFmeso | DRSC06748 | -0.3 | -0.2 | – | –
GEFmeso | DRSC06940 | 0 | 0.1 | – | –
CG16952 | DRSC19759 | -0.3 | 0.7 | – | –
l(3)07882 | DRSC15882 | -0.2 | 0.4 | – | –
Gmap | DRSC19988 | -0.4 | -0.5 | – | –
Gmap | DRSC20057 | -0.4 | -0.3 | – | –
dj-1beta | DRSC14599 | -0.4 | -0.3 | – | –
CG5793 | DRSC15874 | 0.1 | -0.4 | – | –
ND-ACP | DRSC08724 | -0.1 | -0.1 | – | –
CG8476 | DRSC16426 | 0 | -0.2 | – | –
beat-Vc | DRSC12927 | 0.1 | 0 | – | –
beat-Vc | DRSC14849 | -0.2 | 0 | – | –
CG16868 | DRSC06633 | -0.2 | -0.5 | – | –
mRpL43 | DRSC04508 | -0.4 | -0.5 | 0.8 | 1.5
lncRNA:CR32657 | DRSC19403 | -0.2 | -0.4 | – | –
CG32638 | DRSC18968 | 0 | -0.1 | – | –
CG7194 | DRSC10784 | -0.2 | -0.4 | – | –
sli | DRSC07684 | -0.1 | -0.3 | – | –
CG42237 | DRSC19891 | -0.2 | -0.4 | – | –
CG2736 | DRSC04314 | 0.1 | -0.3 | – | –
Eig71Eh | DRSC11155 | -0.1 | -0.3 | – | –
Zif | DRSC12514 | -0.5 | -1.1 | – | –
SCAR | DRSC03426 | -0.2 | 0.1 | – | –
CG12725 | DRSC19501 | 0.1 | -0.2 | – | –
CG16700 | DRSC19755 | -0.3 | -0.4 | – | –
tra | DRSC11405 | -0.2 | -0.3 | – | –
escl | DRSC02828 | -0.3 | -0.2 | – | –
CG1077 | DRSC12146 | -0.3 | 0.1 | – | –
CG4676 | DRSC06879 | 0.2 | -0.1 | – | –
Nepl19 | DRSC14875 | -0.6 | 0 | – | –
